Binding data for 3 molecules are collected here from paper PMC8918322.

By UniProt entry, the sequences of proteins in these tests, tags left out.
UniProt Q9HC98: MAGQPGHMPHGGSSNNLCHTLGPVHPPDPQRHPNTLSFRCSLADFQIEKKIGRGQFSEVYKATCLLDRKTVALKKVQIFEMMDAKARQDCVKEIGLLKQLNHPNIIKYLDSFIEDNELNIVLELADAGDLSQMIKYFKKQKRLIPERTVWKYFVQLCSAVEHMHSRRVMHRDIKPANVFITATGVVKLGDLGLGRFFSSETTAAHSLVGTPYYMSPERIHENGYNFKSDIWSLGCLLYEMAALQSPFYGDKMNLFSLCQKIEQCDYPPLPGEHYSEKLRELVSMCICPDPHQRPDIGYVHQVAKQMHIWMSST

Results are given in words; binding and its absence hold for the method and conditions named. In cells and extracts the contact can be indirect. Some entries that bind do so weakly or less than the wild type.

Test [1] has as its target T1, Ubiquitin-specific peptidase 49 (USP49) (UniProt Q70CQ1).
T1 sequence: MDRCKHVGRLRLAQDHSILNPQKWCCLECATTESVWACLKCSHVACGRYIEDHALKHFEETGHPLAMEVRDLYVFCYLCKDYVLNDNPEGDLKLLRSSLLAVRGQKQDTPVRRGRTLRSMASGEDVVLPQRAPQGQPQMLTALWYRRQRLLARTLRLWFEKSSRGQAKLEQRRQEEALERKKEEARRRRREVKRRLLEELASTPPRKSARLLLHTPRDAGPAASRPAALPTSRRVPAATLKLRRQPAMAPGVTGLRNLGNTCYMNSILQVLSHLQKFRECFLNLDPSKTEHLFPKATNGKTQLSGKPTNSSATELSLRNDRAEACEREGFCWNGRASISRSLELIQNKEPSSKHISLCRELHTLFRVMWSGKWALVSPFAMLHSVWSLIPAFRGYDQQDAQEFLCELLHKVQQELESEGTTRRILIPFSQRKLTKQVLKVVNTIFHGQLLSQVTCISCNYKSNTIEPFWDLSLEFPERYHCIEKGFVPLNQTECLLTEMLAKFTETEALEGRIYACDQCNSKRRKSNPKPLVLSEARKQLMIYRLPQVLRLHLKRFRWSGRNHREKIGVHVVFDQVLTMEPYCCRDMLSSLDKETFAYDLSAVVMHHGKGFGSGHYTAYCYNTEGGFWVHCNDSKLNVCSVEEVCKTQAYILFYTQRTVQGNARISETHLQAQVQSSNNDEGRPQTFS
Kind of test: co-IP; Supplementary Fig. 4B; cells and tags not stated; the sentence does not name the method, the paper's only binding method is IP with HA/Flag tag magnetic beads from NP40 lysate.

A further test addresses T2, USP49 del (UniProt Q70CQ1).
T2 sequence: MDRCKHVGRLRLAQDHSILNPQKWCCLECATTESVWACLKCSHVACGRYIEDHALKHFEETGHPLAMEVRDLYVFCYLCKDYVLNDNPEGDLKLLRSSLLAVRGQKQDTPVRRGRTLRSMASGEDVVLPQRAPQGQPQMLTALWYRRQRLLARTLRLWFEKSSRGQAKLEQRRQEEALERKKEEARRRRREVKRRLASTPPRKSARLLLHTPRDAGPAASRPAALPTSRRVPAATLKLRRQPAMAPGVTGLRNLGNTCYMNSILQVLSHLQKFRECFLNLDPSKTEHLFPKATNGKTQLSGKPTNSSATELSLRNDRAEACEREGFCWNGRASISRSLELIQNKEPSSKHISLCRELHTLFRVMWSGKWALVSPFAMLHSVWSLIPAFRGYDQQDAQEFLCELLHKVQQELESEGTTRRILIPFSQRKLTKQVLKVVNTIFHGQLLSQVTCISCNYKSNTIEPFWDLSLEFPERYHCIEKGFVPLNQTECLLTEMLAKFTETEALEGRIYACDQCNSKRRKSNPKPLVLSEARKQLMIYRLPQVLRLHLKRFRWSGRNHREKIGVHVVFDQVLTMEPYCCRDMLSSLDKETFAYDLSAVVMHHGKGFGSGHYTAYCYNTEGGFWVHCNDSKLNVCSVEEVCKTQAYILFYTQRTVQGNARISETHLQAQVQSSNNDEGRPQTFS
Kind of test: co-IP; Panc-1 and 293 T cells transfected with the indicated plasmids, 10 μM MG132 for 6 h before harvesting; NP40 lysate, 1-2 mg protein, HA/Flag tag magnetic beads, washed five times with TBST; immunoblot. (In general: In western blotting, separated proteins are transferred to a membrane and probed.)

Test [2] addresses T1, Ubiquitin-specific peptidase 49 (USP49). The description is as above.

Turning to “NEK6 (from UniProt Q9HC98 1-313) (enzyme)”, the binding entry in test [1] is reported as “binds”.

B1: NEK3 (enzyme, UniProt P51956 1-506)
chain: MDDYMVLRMIGEGSFGRALLVQHESSNQMFAMKEIRLPKSFSNTQNSRKEAVLLAKMKHPNIVAFKESFEAEGHLYIVMEYCDGGDLMQKIKQQKGKLFPEDMILNWFTQMCLGVNHIHKKRVLHRDIKSKNIFLTQNGKVKLGDFGSARLLSNPMAFACTYVGTPYYVPPEIWENLPYNNKSDIWSLGCILYELCTLKHPFQANSWKNLILKVCQGCISPLPSHYSYELQFLVKQMFKRNPSHRPSATTLLSRGIVARLVQKCLPPEIIMEYGEEVLEEIKNSKHNTPRKKTNPSRIRIALGNEASTVQEEEQDRKGSHTDLESINENLVESALRRVNREEKGNKSVHLRKASSPNLHRRQWEKNVPNTALTALENASILTSSLTAEDDRGGSVIKYSKNTTRKQWLKETPDTLLNILKNADLSLAFQTYTIYRPGSEGFLKGPLSEETEASDSVDGGHDSVILDPERLEPGLDEEDTDFEEEDDNPDWVSELKKRAGWQGLCDR
As for B1, in test [1], the binding entry was “no binding”.

B2: Fbxo45 (protein, UniProt P0C2W1 1-286)
chain: MAAPAPGAGAASGGAGCSGGGAGAGAGSGSGAAGAGGRLPSRVLELVFSYLELSELRSCALVCKHWYRCLHGDENSEVWRSLCARSLAEEALRTDILCNLPSYKAKIRAFQHAFSTNDCSRNVYIKKNGFTLHRNPIAQSTDGARTKIGFSEGRHAWEVWWEGPLGTVAVIGIATKRAPMQCQGYVALLGSDDQSWGWNLVDNNLLHNGEVNGSFPQCNNAPKYQIGERIRVILDMEDKTLAFERGYEFLGVAFRGLPKVCLYPAVSAVYGNTEVTLVYLGKPLDG
For B2, the binding entry (with USP49 del; in test [2]) was “binds” in each case.
